From PubChem BioAssay AID651640 (Broad Institute, 2012)
The campaign covered roughly 350,000 compounds. About 6,000 (1.7%) were called active. The shares of active, inactive and inconclusive entries below differ from those in the screen. No stated cut-off is given here; in the data, active means CPE inhibition above about 20% (passing the limit was not always enough); inconclusive means no clear call, values can overlap the other calls; tested in BHK-21 cells.

test: protection of cells from dengue 2 killing – plate reader, single concentration, primary screen (AID 651640); settings: DENV2-infected cells, cytopathic effect rescue, at 9.99 µM, active compounds read high;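 further: 0% = median of neutral control wells and 100% = median of positive control wells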

Row | Structure (SMILES) | CPE inhibition
1 | C[C@H]1CCCCO[C@@H](CN(C)C(=O)c2ccccc2)[C@@H](C)CN([C@@H](C)CO)C(=O)c2cc(NC(=O)C3CCCCC3)ccc2O1 | inactive: 1.57%
2 | C[C@H]1CN([C@@H](C)CO)C(=O)c2cc(C#Cc3ccccc3)cnc2O[C@@H]1CN(C)S(=O)(=O)c1ccccc1F | inconclusive: 20.4%
3 | COc1cccc(/C=C2/Sc3ccc(C(=O)NCCN4CCCC4)cc3NC2=O)c1 | inactive: -0.757%
4 | C[C@@H]1CN([C@H](C)CO)C(=O)c2cc(NC(=O)CCN3CCOCC3)ccc2O[C@H]1CN(C)Cc1ccc(Cl)c(Cl)c1 | inactive: -4.29%
5 | C[C@H]1CN([C@@H](C)CO)S(=O)(=O)c2ccc(C#Cc3ccccc3F)cc2O[C@@H]1CN(C)C(=O)c1ccc2c(c1)OCO2 | inconclusive: 39%
6 | COCC(=O)Nc1ccc2c(c1)OC[C@@H](C)N(C(=O)COC)C[C@@H](C)[C@H](OC)CN(C)C2=O | active: 52.6%
7 | CC(C)=CC(=O)OCC(=O)Nc1ccc(SC(F)F)cc1 | inactive: 5.7%
8 | Cc1ccc(S(=O)(=O)N(CCCO)CC(O)CON=C2c3ccccc3-c3ccccc32)cc1 (stereo unspecified) | inconclusive: 40.6%
9 | C[C@@H]1CCCCO[C@@H](CN(C)C(=O)Cc2ccccc2)[C@@H](C)CN([C@@H](C)CO)C(=O)c2cc(NC(=O)Nc3ccc4c(c3)OCO4)ccc2O1 | inconclusive: 71.8%
10 | Cc1ccc(S(=O)(=O)N(C)C[C@H]2Oc3c(NC(=O)Nc4cccc5ccccc45)cccc3C(=O)N([C@H](C)CO)C[C@@H]2C)cc1 | active: 34.7%
11 | O=C1CN(S(=O)(=O)Cc2ccccc2)C[C@H]2[C@H](c3ccc(C#Cc4ccc(F)cc4)cc3)[C@@H](CO)N12 | active: 37.5%
12 | CCOC(=O)C1(CCOC)CCN(C(=O)Cc2ccc3ccccc3c2)CC1 | inactive: -0.712%
13 | CSc1ccc(/C=N/n2c(COc3ccccc3)n[nH]c2=S)cc1 | inconclusive: 20.6%
14 | O=C(CN1CCOCC1)N1CCCCN2[C@H](CO)[C@H](c3ccc(C#Cc4ccccc4)cc3)[C@@H]2C1 | active: 31%
15 | COc1ccc(NC(=O)CC2C(=O)N(c3ccc(Cl)cc3)C(=S)N2NC(=O)c2cccc(F)c2)cc1 (stereo unspecified) | inconclusive: 74.2%
16 | O=C(NCC[C@@H]1CC[C@H](NS(=O)(=O)c2cccc(F)c2)[C@@H](CO)O1)C1CCC1 | inconclusive: 37.5%
17 | COc1ccc(Cl)cc1N1C(=O)C2CCCN2C1c1ccc(F)cc1 (stereo unspecified) | inconclusive: 39.6%
18 | CC(C)(C)NC(=O)c1ccc(COc2ccc(Cl)cc2Cl)o1 | inconclusive: 35%

Single values from the results shown.
CPE inhibition with C[C@H]1CN([C@@H](C)CO)C(=O)c2cc(C#Cc3ccccc3)cnc2O[C@@H]1CN(C)S(=O)(=O)c1ccccc1F is entered as inconclusive: 20.4%
CPE inhibition with C[C@H]1CCCCO[C@@H](CN(C)C(=O)c2ccccc2)[C@@H](C)CN([C@@H](C)CO)C(=O)c2cc(NC(=O)C3CCCCC3)ccc2O1 is entered as inactive: 1.57%

More entries.

Row | Structure (SMILES) | CPE inhibition
19 | Cc1cccc(NC(=O)NC2CCCCCCC2)c1 | inconclusive: 45.7%
20 | CCOC(=O)c1ncn2c1CN(C)C(=O)c1cc(F)ccc1-2 | inconclusive: 53.2%
21 | CCC(=O)Nc1ccc2c(c1)C(=O)N(C)[C@@H]1CC[C@H](CC(=O)NC3CCCC3)O[C@@H]1CO2 | inactive: 1.44%
22 | COc1ccc(S(=O)(=O)N(C)C[C@H]2OCCCC[C@@H](C)Oc3ccc(NS(C)(=O)=O)cc3C(=O)N([C@@H](C)CO)C[C@@H]2C)cc1 | active: 22.4%
23 | COc1ccc(C2NC(Cc3ccccc3)(C(=O)O)C3C(=O)N(c4ccccc4OC)C(=O)C23)cc1 (stereo unspecified) | inactive: -5.96%
24 | CC(C)NC(=O)N[C@@H]1C=C[C@H](CC(=O)NCc2ccc(Oc3ccccc3)cc2)O[C@H]1CO | inconclusive: 36.8%
25 | CN(C(=O)CSc1nc2ccccc2o1)C1CCS(=O)(=O)C1 (stereo unspecified) | inactive: -7.31%
26 | COc1cc(/C=C/c2ccc(O)cc2)cc(OC)c1 | inconclusive: 42.1%
27 | COC(=O)C[C@@H]1C[C@@H]2c3cc(NC(=O)NC4CCCCC4)ccc3O[C@@H]2[C@H](CO)O1 | inconclusive: 44.6%
28 | CCCCn1nnnc1C(c1ccccc1)N1CCN(c2ccccc2)CC1 (stereo unspecified) | inconclusive: 29.5%
29 | CS(=O)(=O)Nc1ccc2c(c1)[C@@H]1C[C@@H](CC(=O)N3CCCCC3)O[C@@H](CO)[C@@H]1O2 | inactive: -2.9%
30 | Cc1cc(=O)oc2cc(OCC(=O)Nc3c(C)n(C)n(-c4ccccc4)c3=O)c(Cl)cc12 | inconclusive: 44.8%
31 | COc1cc2nc(CN(C)Cc3ccc(SC)cc3)[nH]c(=O)c2cc1OC | inconclusive: 23.1%
32 | N#Cc1ccc(-c2ccc3c(c2)[C@H]2[C@H](CCN2S(=O)(=O)c2cccc(F)c2)[C@@H](CO)N3)cc1 | inactive: 11.6%
33 | Cc1ccc(N(C)S(=O)(=O)c2cccc(C(=O)OCC(=O)c3c(N)n(C)c(=O)n(C)c3=O)c2)cc1 | inconclusive: 44.7%
34 | O=C(O)C1CCN(C(=O)c2cc(F)cc3c2OCOC3)CC1 | inconclusive: 26.2%
35 | COc1ccc(OC)c(CCNC(=O)CCc2nnc3ccc(N4CCOCC4)nn23)c1 | inconclusive: 23.7%
36 | COc1ccc2c3c([nH]c2c1)[C@H](CO)N(C(=O)c1ccc(F)cc1)CC31CCN(C(=O)Nc2cccc(F)c2)CC1 | inactive: 5.62%
